Experimental data: PubChem BioAssay AID504594 (Broad Institute, 2011)
Among all 2,000 compounds or so, fewer than 10 were called active.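 How the source made its calls: active means growth inhibition of at least 75% in every replicate, which also brings the mean inhibition to 75% or more; inconclusive means mean inhibition 75% or more but some replicate under 75%; inactive means the rest.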 This is one part of the list.

Assay: reduced viability of yeast carrying PfHsp90 – S. cerevisiae, BacTiter-Glo luminescence, antimalarial PfHsp90 inhibitor project, primary screen (AID 504594);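 further: 0% = DMSO neutral control wells and 100% = 20 µM radicicol control wells; higher value means stronger growth inhibition because the sign is flipped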
Conditions: S. cerevisiae expressing PfHsp90, BacTiter-Glo growth, 48 h; at 9.4 µM; active compounds read high
With `CCCCC1C(=O)N(c2ccccc2)N(c2ccccc2)C1=O` the growth inhibition was inactive: 1.62%.
For `COc1ccccc1/C=C/C(=O)OCCN1CCOCC1`, the growth inhibition was inactive: 6.29%.
In the case of `COc1ccc(S(=O)(=O)NC(Cc2cnc[nH]2)C(=O)O)cc1` (stereo not drawn), the growth inhibition is reported as inactive: -8.95%.
For `CN(C)CCOc1ccccc1Cc1ccccc1`, the growth inhibition was inactive: 4.61%.
With `CC1/C(=C\c2ccc(Cl)cc2)C(=O)C2CC1C2(C)C` (stereo not drawn) the growth inhibition was inactive: -4.13%.
In the case of `CC1=CC(=O)c2ccccc2C1=O`, the growth inhibition is reported as inactive: -4.75%.
In the case of `CCOc1ccc(C(NC(C)=O)c2ccc(OC)c(OC)c2)cc1` (stereo not drawn), the growth inhibition is reported as inactive: -1.83%.
In the case of `CC1(c2ccccc2)CC(C)(C)N2C(=O)C(=O)c3cccc1c32` (stereo not drawn), the growth inhibition is reported as inactive: -3.23%.
For `CCOc1ccc2nc(N/C(N)=N/S(C)(=O)=O)nc(C)c2c1`, the growth inhibition was inactive: 2.51%.
For `CC[C@]1(O)C[C@@H]2CN(CCc3c([nH]c4ccccc34)[C@@](C(=O)OC)(c3cc4c(cc3OC)N(C)[C@H]3[C@@](O)(C(=O)OC)[C@H](OC(C)=O)[C@]5(CC)C=CCN6CC[C@]43[C@@H]65)C2)C1`, the growth inhibition was inactive: 1.01%.
In the case of `CN(C)CCOC(c1ccccc1)c1ccccc1` (tested in a mixture with another compound), the growth inhibition is reported as inactive: 4.07%.
For `CCN(CCCc1ccccc1)CCCc1ccccc1`, the growth inhibition was inactive: -1.49%.
In the case of `COc1ccc(C2c3c(n[nH]c3C)CC(C)(O)C2C(C)=O)cc1OC` (stereo not drawn), the growth inhibition is reported as inactive: 7.08%.
With `CC12CCC(C(=O)N(CCC#N)CCC#N)(CC1=O)C2(C)C` (stereo not drawn) the growth inhibition was inactive: -0.835%.
For `Nc1ccc(N=Nc2ccccc2)c(N)n1`, the growth inhibition was inactive: 3.56%.
In the case of `CCN(CC)C(=O)N1CCN(C)CC1`, the growth inhibition is reported as inactive: -2.34%.
With `CC(C)COc1ccc(Cc2cnc(N)nc2N)cc1` the growth inhibition was inactive: -8.61%.
In the case of `COc1ccc(C2NC(=O)c3ccccc3O2)c(OC)c1OC` (stereo not drawn), the growth inhibition is reported as inactive: -13.1%.
With `O=C1CCCN1C(=O)CCC(=O)N1CCCC1=O` the growth inhibition was inactive: -0.847%.
With `Cc1cccc2c(C(=O)O)cc(-c3cccnc3)nc12` the growth inhibition was inactive: -1.78%.
In the case of `O=C(O)CCCCCNC(=O)Nc1ccc2c(c1)OCCO2`, the growth inhibition is reported as inactive: 4.34%.
In the case of `O=C(CC(NC(=O)OCc1ccccc1)C(=O)O)OCc1ccccc1` (stereo not drawn), the growth inhibition is reported as inactive: 0.482%.
In the case of `CC(C)(C)C(=O)NC(=S)Nc1sc2c(c1C(N)=O)CCC2`, the growth inhibition is reported as inactive: -6.01%.
In the case of `COC(=O)C1=C(C)N(Cc2ccco2)C(=O)/C1=C\c1ccc([N+](=O)[O-])cc1`, the growth inhibition is reported as inactive: 5.82%.
In the case of `Cc1ccc(S(=O)(=O)N[C@@H](C)C(=O)N2CCC(C(=O)N3CCC[C@H]3C(=O)O)CC2)cc1`, the growth inhibition is reported as inactive: 10.6%.
In the case of `CC1(C)Cc2ccccc2-c2nc(-c3ccccc3)oc(=O)c21`, the growth inhibition is reported as inactive: 4.05%.
For `COc1c(C=O)c(CCN(C)C(=O)c2ccc(F)cc2)cc2c1OCO2`, the growth inhibition was inactive: 5.71%.
In the case of `CCOCCCNCc1cn(-c2ccc(F)cc2F)nc1-c1ccccc1C`, the growth inhibition is reported as inactive: 5.3%.
In the case of `CCOC(=O)c1cccc(P(C)(C)=O)c1`, the growth inhibition is reported as inactive: 4.89%.
For `C=CC1=C(C(=O)O)N2C(=O)C(NC(=O)Cc3ccccc3)C2SC1` (stereo not drawn), the growth inhibition was inactive: -7.86%.
For `C=CCc1ccccc1OCC(O)CNC(C)C` (stereo not drawn), the growth inhibition was inactive: -1.09%.
With `O=C(Cc1ccccc1)NNC(=O)Cc1ccccc1` the growth inhibition was inactive: 7.69%.
In the case of `CCCCOc1ccc(CC(=O)NO)cc1`, the growth inhibition is reported as inactive: 0.384%.
In the case of `CC(=O)OC(C)C[N+](C)(C)C` (stereo not drawn), the growth inhibition is reported as inactive: -2.62%.
In the case of `Cc1ccccc1OCC(O)CN1CCN(C)CC1` (stereo not drawn), the growth inhibition is reported as inactive: 2.9%.
In the case of `CC(=O)Nc1ccccc1C(=O)C(=O)Nc1ccccc1`, the growth inhibition is reported as inactive: -9.27%.
In the case of `N/C(=N\OC(=O)/C=C/c1ccccc1)c1ccc(Br)cc1`, the growth inhibition is reported as inactive: -17.8%.
With `CN(C)CCC(c1ccccc1)c1ccccn1` (stereo not drawn) the growth inhibition was inactive: -2.07%.
In the case of `Nc1ccc2nc(Cc3ccccc3)[nH]c2c1`, the growth inhibition is reported as inactive: -24.9%.
With `CC1(C)C(=O)OC(C(=O)c2ccc(Cl)cc2)C(C)(C)C1=O` (stereo not drawn) the growth inhibition was inactive: -6.03%.
With `O=C(O)CCCCCCNC(=O)c1cncc(O)c1` the growth inhibition was inactive: -1.83%.
For `OCCC1CN(Cc2ccccc2-c2ccco2)CCN1C1CCCC1` (stereo not drawn), the growth inhibition was inactive: -5.78%.
In the case of `Cc1ccc2c(c1)C(O)(c1c(C)[nH]c3ccccc13)C(=O)N2` (stereo not drawn), the growth inhibition is reported as inactive: -6.8%.
For `COc1ccccc1C(CC(=O)Nc1ccccc1C)c1ccc(OC(C)C)cc1` (stereo not drawn), the growth inhibition was inactive: -19.3%.
For `COc1ccc(CCNC(=S)NC(=O)/C=C/c2ccc(C)cc2)cc1OC`, the growth inhibition was inactive: -2.36%.
For `O=c1nc2n(c3c1oc1ccccc13)Cc1ccccc1-2`, the growth inhibition was inactive: -0.595%.
In the case of `COc1cc(C2C(C(=O)c3ccc(C)o3)=C(O)C(=O)N2Cc2cccnc2)ccc1O` (stereo not drawn), the growth inhibition is reported as inactive: -7.55%.
For `CC(=O)Oc1c2occc2cc2ccc(=O)oc12`, the growth inhibition was inactive: -1.02%.
With `O=C1Nc2ccc3sc4ccccc4c3c2C1=O` the growth inhibition was inactive: -1.28%.
In the case of `COc1ccccc1NC(=O)N1CCc2[nH]c3ccc(Cl)cc3c2C1`, the growth inhibition is reported as inactive: -18.9%.
For `NC(=O)c1cccnc1`, the growth inhibition was inactive: 12.6%.
In the case of `CO/N=C(\C(=O)N[C@@H]1C(=O)N2C(C(=O)O)=C(COC(C)=O)CS[C@H]12)c1csc(N)n1` (stereo in doubt), the growth inhibition is reported as inactive: -4.72%.
In the case of `O=C(O)C1CSC(c2ccc3c(c2)OCO3)N1` (stereo not drawn), the growth inhibition is reported as inactive: 2.51%.
In the case of `CC12CCCCN1CCCc1c2[nH]c2ccccc12` (stereo not drawn), the growth inhibition is reported as inactive: -0.243%.
With `Cn1c(=O)c2c(ncn2CC(O)CO)n(C)c1=O` (stereo not drawn) the growth inhibition was inactive: -8.06%.
In the case of `COc1cccc(N2C(=O)CC(c3c[nH]c4ccccc34)C2=O)c1` (stereo not drawn), the growth inhibition is reported as inactive: -3.63%.
With `N=C1C(c2ccccc2)=C(O)CN1CCCO` the growth inhibition was inactive: -10.9%.
With `COC(=O)CN1CC(=O)N(c2ccccc2)C1=S` the growth inhibition was inactive: 17.3%.
With `CCCCC[C@H](O)/C=C/[C@@H]1[C@@H](CCCCCCC(=O)O)[C@@H](O)C[C@H]1O` the growth inhibition was inactive: -9.31%.
With `O=C(/C=C/Sc1ccccc1)c1ccccc1` the growth inhibition was inactive: 61.1%.
With `C=CCC1(O)C(=O)N2C(=C1C(=O)N1CCOCC1)c1ccccc1CC2(C)C` (stereo not drawn) the growth inhibition was inactive: 0.738%.
With `Cc1c(OC(=O)CNC(=O)OC(C)(C)C)ccc2c3c(c(=O)oc12)CCC3` the growth inhibition was inactive: -3.7%.
For `CCOC(=O)C1=C(C)NC(C)=C(C(=O)OC)C1c1cccc([N+](=O)[O-])c1` (stereo not drawn), the growth inhibition was inactive: 2.38%.
For `CC(=Nc1ccccc1)C1=C(O)CCCC1=O`, the growth inhibition was inactive: -4.54%.
With `O=c1c(C(c2ccccc2)c2c(O)sc3ccccc3c2=O)c(O)sc2ccccc12` the growth inhibition was inactive: -8.88%.
For `CN(CCc1cnn(C)c1)Cc1nc(CC2CC2)no1`, the growth inhibition was inactive: 19.2%.
For `Cc1ccc(N2C(=O)c3ccccc3C2=O)cc1C`, the growth inhibition was inactive: -0.638%.
For `CCOC(=O)c1ccc2[nH]c(C)c(CCC(C)=O)c(=O)c2c1`, the growth inhibition was inactive: 6.85%.
With `O=C(NCCc1c[nH]c2ccccc12)OCCSS(=O)(=O)O` the growth inhibition was inactive: -7.25%.
For `CCn1cc(C(=O)O)c(=O)c2cc(F)c(N3CCNCC3)cc21`, the growth inhibition was inactive: -0.253%.
For `Cc1ccc(C(=O)O)cc1NC(=O)c1cccs1`, the growth inhibition was inactive: -2.47%.
With `CC1(C)CC(=O)c2cn3c(nc2C1)nc1ccccc13` the growth inhibition was inactive: -5.82%.
For `Cc1ccc(OCCSc2ncccn2)c(C)c1`, the growth inhibition was inactive: -4.3%.
For `O=C(Cc1ccccc1[N+](=O)[O-])NCc1ccncc1`, the growth inhibition was inactive: 15%.
With `Cc1cc(OCC(=O)C(C)(C)C)c2c(C)c(C)c(=O)oc2c1` the growth inhibition was inactive: -4.06%.
In the case of `CCOC(=O)c1c(O)c2c([nH]c1=O)CCCC2`, the growth inhibition is reported as inactive: -2.33%.
For `O=C(N/C(=C/C=C\c1ccccc1)C(=O)N1CCOCC1)c1ccc(Br)cc1`, the growth inhibition was inactive: -2.33%.
For `CC(CN1c2ccccc2Sc2ccccc21)N(C)C` (stereo not drawn), the growth inhibition was inactive: -11.1%.
With `COc1ccc(NC(=O)N2CCCCC2c2cccnc2)cc1` (stereo not drawn) the growth inhibition was inactive: 24.9%.
In the case of `NS(=O)(=O)c1cc2c(cc1C(F)(F)F)NC(Cc1ccccc1)NS2(=O)=O` (stereo not drawn), the growth inhibition is reported as inactive: 0.054%.
In the case of `COc1ccc([C@H]2[C@H](C(=O)OC(C)(C)C)N3N=Cc4ccccc4C3C23C(=O)c2ccccc2C3=O)cc1OC` (stereo partly drawn), the growth inhibition is reported as inactive: 3.63%.
In the case of `COc1cc(C(=S)N(C)C)ccc1O`, the growth inhibition is reported as inactive: -4.93%.
In the case of `CCn1c(N2CCN(CC(=O)c3c(C)n(C)c4ccc(OC)cc34)CC2)nc2c1c(=O)[nH]c(=O)n2C`, the growth inhibition is reported as inactive: -0.0085%.
In the case of `COc1ccc(C(=O)OCc2cc3cccc(C)c3[nH]c2=O)cc1`, the growth inhibition is reported as inactive: -1.4%.
In the case of `COCc1cc(=O)[nH]c(/N=C(\N)Nc2ccc(Oc3ccccc3)cc2)n1`, the growth inhibition is reported as inactive: -12.9%.
In the case of `N/C(=N\OC(=O)CCCOc1ccc(Cl)cc1Cl)c1ccncc1`, the growth inhibition is reported as inactive: -2.92%.
With `CCOc1cc2c3c(c1)C(C)=CC(C)(C)N3C(=O)C2=O` the growth inhibition was inactive: -0.287%.
For `CC1(C)CC(=O)C(C2=NC(C)(C)Cc3ccccc32)=C(O)C1`, the growth inhibition was inactive: 1.05%.
With `O=C1CCCCCN1Cc1ccccc1` the growth inhibition was inactive: -10.2%.
In the case of `Cc1ccc2c(c1)OC(=O)CC2c1ccccc1` (stereo not drawn), the growth inhibition is reported as inactive: 16.1%.
With `C#CCOc1ccc2c(C)cc(=O)oc2c1` the growth inhibition was inactive: -0.459%.
With `CS(=O)(=O)NCc1ccc(C(=O)NCc2ccccc2)cc1` the growth inhibition was inactive: -1.7%.
With `C/C(=N/N1CCN(Cc2cccc3ccccc23)CC1)c1cccnc1` the growth inhibition was inactive: 2.11%.
With `Cc1cccc(Nc2ncccc2C(=O)O)c1C` the growth inhibition was inactive: 14.6%.
With `COc1cccc(N2C(=O)[C@H]3C(C(=O)c4cnccn4)=NN[C@H]3C2=O)c1` the growth inhibition was inactive: -1.02%.
With `Cc1ccc2c(c1)C1CN(C)CCC1N2S(=O)(=O)c1ccc(Oc2ccc([N+](=O)[O-])cc2)cc1` (stereo not drawn) the growth inhibition was inactive: -4.14%.
With `COc1ccc(CNC(=O)N[C@H](C(=O)O)C(C)C)cc1OC` the growth inhibition was inactive: -0.856%.
With `CC1(C)CC(CC(=O)Nc2nccs2)(c2ccccc2)CCO1` (stereo not drawn) the growth inhibition was inactive: 4.27%.
